## Results of single-concentration screens

The chains behind the UniProt entries cited, without tags or fusion partners. Residues count along the entry.
UniProt Q4DA54, 1-478: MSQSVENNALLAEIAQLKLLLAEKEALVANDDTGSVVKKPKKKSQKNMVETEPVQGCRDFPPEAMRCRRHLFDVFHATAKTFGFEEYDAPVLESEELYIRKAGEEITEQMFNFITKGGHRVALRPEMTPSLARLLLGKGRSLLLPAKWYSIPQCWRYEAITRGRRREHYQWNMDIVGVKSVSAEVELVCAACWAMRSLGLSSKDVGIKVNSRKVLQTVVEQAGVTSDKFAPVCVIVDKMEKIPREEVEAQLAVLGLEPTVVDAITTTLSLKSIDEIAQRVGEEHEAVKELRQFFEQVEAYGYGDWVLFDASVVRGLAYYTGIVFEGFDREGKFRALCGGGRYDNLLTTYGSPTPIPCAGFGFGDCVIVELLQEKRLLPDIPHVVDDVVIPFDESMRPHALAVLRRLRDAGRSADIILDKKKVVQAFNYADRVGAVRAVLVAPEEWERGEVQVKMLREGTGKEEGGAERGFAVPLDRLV
UniProt A4I591, 1-473: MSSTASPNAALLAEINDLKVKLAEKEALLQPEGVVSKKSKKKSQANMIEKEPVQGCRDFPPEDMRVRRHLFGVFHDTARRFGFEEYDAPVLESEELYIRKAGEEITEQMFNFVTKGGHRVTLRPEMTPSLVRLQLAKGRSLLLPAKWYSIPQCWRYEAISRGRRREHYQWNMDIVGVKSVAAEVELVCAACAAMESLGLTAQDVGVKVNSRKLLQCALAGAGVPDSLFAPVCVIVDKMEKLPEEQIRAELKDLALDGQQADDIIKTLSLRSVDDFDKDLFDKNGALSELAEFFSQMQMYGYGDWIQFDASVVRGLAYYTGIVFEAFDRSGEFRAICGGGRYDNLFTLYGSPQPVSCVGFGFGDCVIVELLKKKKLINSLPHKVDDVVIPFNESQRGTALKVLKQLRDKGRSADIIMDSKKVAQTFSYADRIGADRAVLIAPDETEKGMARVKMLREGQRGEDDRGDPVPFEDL

Source: ChEMBL document CHEMBL3988442, “University of Dundee, Small-Polar-MMV Screening Library” (2021).

TcHisRS: 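Enzyme assay of histidyl-tRNA synthetase; the read-out is not stated. Target: Histidine-tRNA ligase, Trypanosoma cruzi CL Brener (UniProt Q4DA54). Tested at 30 µM. The record gives no direction; compounds that gave an IC50 in retests scored well above the rest, so higher reads as stronger inhibition. Of about 69,000 compounds tested this way, about 31 (0.045%) reached 50% or more in at least one test.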
LiHisRS: 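Enzyme assay of histidyl-tRNA synthetase; the read-out is not stated. Target: Histidine-tRNA ligase, Leishmania infantum (UniProt A4I591). Compounds at 30 µM. The record gives no direction; compounds that gave an IC50 in retests scored well above the rest, so higher reads as stronger inhibition. The assay is labelled LdHisRS but filed under L. infantum. About 69,000 compounds were tested under these conditions; 0.6% (about 410) showed 50% or more at least once.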

Values are the deposited “Percent Effect”, in %.
The record does not define 0% and 100%; most values in the screen are far below 50% and negative numbers occur (in some assays of this library far below -100).
Compounds were drawn at random from those tested, without regard to their results.

Result for CC(C)CN1C(=O)C[C@@H]2[C@@H]1CCN2Cc1cccc(C#N)c1 was TcHisRS: 8.824%; LiHisRS: 12%.
Result for COc1ccc(OCCc2sc(C3(O)CCCNCC3)nc2C)cc1 (stereo unspecified) was TcHisRS: 2.703%; LiHisRS: 8.333%.
Result for Cc1nc(C2CN(Cc3scnc3C)CCO2)cc(N(C)C)n1 (stereo unspecified) was TcHisRS: 1.521%; LiHisRS: 7.586%.
Result for Cc1cc(C)n(CC2CCCN2Cc2cscn2)n1 (stereo unspecified) was TcHisRS: -2.521%; LiHisRS: 11.57%.
Result for Cc1nc(CN(C)C2CCN(Cc3nc(C4CC4)no3)C2)no1 (stereo unspecified) was TcHisRS: 1.754%; LiHisRS: 10.62%.
Result for CC(C)N1CCC(C(=O)N2CCc3c(nc(CC4CC4)[nH]c3=O)C2)CC1 was TcHisRS: 5.464%; LiHisRS: 5.479%.
Result for Nc1nc(N2CCCCCC2)ncc1C(=O)NCc1ccc(F)c(Cl)c1 was TcHisRS: 23.76%; LiHisRS: 8.696%.
Result for COCC(=O)N1CCC2(CCC(C(=O)N3CCCC3)O2)CC1 (stereo unspecified) was TcHisRS: -3.883%; LiHisRS: 0%.
Result for CCN1C(=O)C[C@@H]2[C@@H]1CCN2S(=O)(=O)c1ccccc1 was TcHisRS: 5.825%; LiHisRS: 13.59%.
Result for O=C(C1CC1)N1C[C@@H](F)[C@@H](OCc2nc3ccccc3o2)C1 was TcHisRS: 2.174%; LiHisRS: 12.16%.
Result for CCS(=O)(=O)N1CCN(C(C)(C)CO)CC1 was TcHisRS: 5.155%; LiHisRS: 8.046%.
Result for Cc1ccc(NC2CCN(C(=O)c3cccnc3N(C)C)CC2)nn1 was TcHisRS: 4.035%; LiHisRS: 3.571%.
Result for Cn1nc(CNC(=O)c2cccc(C(F)(F)F)c2)c2c1CCOC2 was TcHisRS: 2%; LiHisRS: 6.849%.
Result for CS(=O)(=O)CCNC(=O)N(Cc1ccoc1)C1CCCCC1 was TcHisRS: -1.01%; LiHisRS: 9.524%.
Result for CCc1ccc(S(=O)(=O)Nc2cc(C(=O)O)c(F)cc2F)s1 was TcHisRS: 0%; LiHisRS: 22.73%.
Result for CCCc1cc(NCCn2cccn2)n2ncnc2n1 was TcHisRS: 3.804%; LiHisRS: 5.333%.
Result for CCn1cnnc1C1CCN(C(=O)c2ccccc2F)CC1 was TcHisRS: 4.598%; LiHisRS: 13.91%.
Result for O=C(c1cn(-c2cc(N3CCSCC3)ncn2)cn1)N1CCOCC1 was TcHisRS: 2.041%; LiHisRS: 0%.
Result for Oc1cc(C2CCCCN2C2CCCC2)nc(-c2ccncc2)n1 (stereo unspecified) was TcHisRS: 2.326%; LiHisRS: 9.929%.
Result for Cn1cc(C2CCCN2C(=O)CS(=O)(=O)C2CCCC2)cn1 (stereo unspecified) was TcHisRS: 0%; LiHisRS: 13.22%.
Result for CN(C)CCOc1cc(NC(=O)COCC(F)(F)F)ccn1 was TcHisRS: 4.433%; LiHisRS: 19.74%.
Result for Cc1occc1C(=O)N1CCn2c(Cn3cncn3)cnc2C1C (stereo unspecified) was TcHisRS: 8.571%; LiHisRS: 12.5%.
Result for CNc1cc(C)nc(N2CCC3(CC2)[C@H](O)C[C@@H]3OC)n1 was TcHisRS: 5.82%; LiHisRS: -5.882%.
Result for CN(C)c1cc(C(=O)NCCc2nnc(-c3ccco3)[nH]2)ccn1 was TcHisRS: 5.435%; LiHisRS: 14.29%.
Result for O=C(C1CCCCC1)N1C[C@H]2CNC[C@H]2C1 was TcHisRS: -0.9709%; LiHisRS: 3.846%.
Result for Cc1nnc(NCCc2nc3ccc(F)cc3n2C)c(C#N)c1C was TcHisRS: 20.77%; LiHisRS: 41.1%.
Result for Cc1cc(C[C@@H]2CCC[C@H]2NCc2c[nH]nc2-c2ccccc2)on1 was TcHisRS: 14.29%; LiHisRS: 27.54%.
Result for Cc1ccc(-c2nc(C(=O)N3CCCC(C(N)=O)C3)cs2)c(C)c1 (stereo unspecified) was TcHisRS: 2.041%; LiHisRS: 5.505%.
Result for Cc1ccc(Oc2ncccc2CNC2CCOCC2)cn1 was TcHisRS: -1.163%; LiHisRS: 6.557%.
Result for Cc1ccc(CN[C@@H]2COC[C@H]2c2ccc(F)cc2)cc1C was TcHisRS: 3.876%; LiHisRS: 11.35%.
Result for O=C(O)c1cc(C2=CCCCC2)cc(S(=O)(=O)NCc2ccccn2)c1 was TcHisRS: 10.34%; LiHisRS: 20.51%.
Result for Cc1nccc(N2CCC(=O)N(CC3CC3)C(C(C)C)C2)n1 (stereo unspecified) was TcHisRS: 5.528%; LiHisRS: 15.2%.
Result for Cc1cc(CC(=O)N2CCCC2c2nc(C(C)C)no2)on1 (stereo unspecified) was TcHisRS: -3.252%; LiHisRS: 18.27%.
Result for COCC(=O)N1CCC(c2ccc(OC)cc2)C1 (stereo unspecified) was TcHisRS: 3.636%; LiHisRS: 23.38%.
Result for Cn1cc(C2=CCN(CCC(=O)NCc3ccc(Cl)cc3)CC2)cn1 was TcHisRS: 4.464%; LiHisRS: 15.93%.
Result for Cc1cccc(NC(=O)c2ccc(-n3cncn3)nn2)n1 was TcHisRS: 6.186%; LiHisRS: 1.739%.
Result for O=C1NCC2(CCN(C(=O)c3ccc4c(c3)CCCO4)CC2)O1 was TcHisRS: 0.5618%; LiHisRS: 20.51%.
Result for Cc1cc(CCC(N)=O)cc(C2CCCN2Cc2ccccn2)n1 (stereo unspecified) was TcHisRS: 6.742%; LiHisRS: 8%.
Result for Cn1cc(CN2CCCC23CCN(C(=O)c2ccsc2)CC3)cn1 was TcHisRS: 2.479%; LiHisRS: 7.273%.
Result for Cc1ccccc1NCc1nc2n(n1)CCCCC2 was TcHisRS: 2.484%; LiHisRS: 20%.
Result for CN(C)c1ccnc(N2CCC(NCCOc3ccccc3)CC2)n1 was TcHisRS: 6.077%; LiHisRS: 9.859%.
Result for O=C(NCc1ccc(Cl)cc1)C1=NOC2(CCNC2)C1 (stereo unspecified) was TcHisRS: 9.091%; LiHisRS: 18.18%.
Result for CC(C)CCc1nc(CNCC2CCCN2c2cccnn2)cs1 (stereo unspecified) was TcHisRS: 23.08%; LiHisRS: 39.29%.
Result for c1cnc(N2CCO[C@H]3CN(Cc4cc[nH]n4)C[C@H]32)cn1 was TcHisRS: 4.598%; LiHisRS: 5.263%.
Result for CCc1ccsc1C(=O)NC(Cc1ccccc1)C(N)=O (stereo unspecified) was TcHisRS: 2.956%; LiHisRS: 23.29%.

The last 2 entries again:

SMILES	TcHisRS	LiHisRS
c1cnc(N2CCO[C@H]3CN(Cc4cc[nH]n4)C[C@H]32)cn1	4.598%	5.263%
CCc1ccsc1C(=O)NC(Cc1ccccc1)C(N)=O (stereo unspecified)	2.956%	23.29%